Results from PMC5422739.
These are yes or no findings as the source states them, for the method shown. For some assays here: Binding can be weak; no strength is given.

How the values were obtained:
[1] = target: T1, HTE20 (20th exon of human tropoelastin) (human) (UniProt P15502); assay: ELISA; HTE17-20, HTE20, HTE20N, HTE20C or BSA coated (1 μM/well); GST tagged LigB4 or LigB12 titrated 0 to 10 μM, 1 h at 37°C; HRP anti-GST; KD from a saturation fit of OD630; both purified
T1 sequence: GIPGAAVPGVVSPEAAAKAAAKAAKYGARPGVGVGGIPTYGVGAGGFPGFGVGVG

[2] = target: T2, HTE20C (the last 28 residues of HTE20, amino acids 385–412 of HTE) (human) (UniProt P15502); assay: as above
T2 sequence: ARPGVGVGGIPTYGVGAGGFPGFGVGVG

## GST tagged LigB4 (amino acids 307–403 in LigB) (L. interrogans serovar Pomona) (domain or fragment)
[1]
  binding: binds
[2]
  binding: no binding (tested: 10 μM)
